Reference: patent US20140141061A1
Results are given in words; binding and its absence hold for the method and conditions named. Binding seen in cells or lysates may run through a third protein. Some entries that bind do so weakly or less than the wild type.

Amino acid sequences for entries named in this document (tags omitted). Residues count along the entry.
UniProt Q16665: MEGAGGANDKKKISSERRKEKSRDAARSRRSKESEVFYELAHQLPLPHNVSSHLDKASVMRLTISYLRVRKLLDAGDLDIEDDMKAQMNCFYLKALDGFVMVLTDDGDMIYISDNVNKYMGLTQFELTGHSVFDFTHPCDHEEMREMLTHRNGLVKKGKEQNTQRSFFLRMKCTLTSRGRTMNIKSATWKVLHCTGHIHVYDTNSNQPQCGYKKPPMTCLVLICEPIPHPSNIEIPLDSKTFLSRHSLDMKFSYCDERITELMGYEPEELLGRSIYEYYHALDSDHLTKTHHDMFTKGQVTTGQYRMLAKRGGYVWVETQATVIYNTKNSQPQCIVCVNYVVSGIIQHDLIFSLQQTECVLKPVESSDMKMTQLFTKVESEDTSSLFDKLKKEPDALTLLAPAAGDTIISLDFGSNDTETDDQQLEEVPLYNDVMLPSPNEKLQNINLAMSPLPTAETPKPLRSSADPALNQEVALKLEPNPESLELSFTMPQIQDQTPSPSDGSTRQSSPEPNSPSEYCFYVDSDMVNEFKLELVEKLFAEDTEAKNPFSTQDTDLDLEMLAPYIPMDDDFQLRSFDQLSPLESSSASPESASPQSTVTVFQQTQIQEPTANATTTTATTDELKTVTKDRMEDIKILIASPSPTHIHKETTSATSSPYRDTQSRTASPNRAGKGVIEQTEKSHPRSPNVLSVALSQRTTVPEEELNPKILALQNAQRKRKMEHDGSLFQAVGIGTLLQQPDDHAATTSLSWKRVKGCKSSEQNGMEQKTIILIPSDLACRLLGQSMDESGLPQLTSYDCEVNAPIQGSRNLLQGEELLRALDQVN
UniProt Q61221: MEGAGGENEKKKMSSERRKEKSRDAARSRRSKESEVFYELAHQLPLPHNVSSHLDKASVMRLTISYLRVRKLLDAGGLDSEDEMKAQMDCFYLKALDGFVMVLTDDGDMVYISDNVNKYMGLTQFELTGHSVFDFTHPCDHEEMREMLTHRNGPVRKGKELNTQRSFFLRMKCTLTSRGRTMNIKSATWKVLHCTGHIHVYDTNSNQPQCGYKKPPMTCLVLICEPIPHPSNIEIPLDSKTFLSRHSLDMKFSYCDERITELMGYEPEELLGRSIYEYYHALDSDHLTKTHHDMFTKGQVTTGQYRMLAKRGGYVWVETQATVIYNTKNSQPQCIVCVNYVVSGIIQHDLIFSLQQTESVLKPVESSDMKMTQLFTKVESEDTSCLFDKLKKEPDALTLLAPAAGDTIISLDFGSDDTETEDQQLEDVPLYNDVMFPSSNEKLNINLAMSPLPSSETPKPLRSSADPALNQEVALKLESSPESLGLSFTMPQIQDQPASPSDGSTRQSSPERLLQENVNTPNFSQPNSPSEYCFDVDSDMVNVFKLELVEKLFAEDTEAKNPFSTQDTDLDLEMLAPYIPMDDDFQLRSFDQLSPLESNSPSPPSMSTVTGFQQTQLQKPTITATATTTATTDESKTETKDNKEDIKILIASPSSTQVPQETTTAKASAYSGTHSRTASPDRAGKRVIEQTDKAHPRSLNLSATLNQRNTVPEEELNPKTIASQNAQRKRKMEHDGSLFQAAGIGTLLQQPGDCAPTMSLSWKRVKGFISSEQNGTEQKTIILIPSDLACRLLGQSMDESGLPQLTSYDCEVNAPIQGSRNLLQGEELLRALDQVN
UniProt P35222, residues 2-781: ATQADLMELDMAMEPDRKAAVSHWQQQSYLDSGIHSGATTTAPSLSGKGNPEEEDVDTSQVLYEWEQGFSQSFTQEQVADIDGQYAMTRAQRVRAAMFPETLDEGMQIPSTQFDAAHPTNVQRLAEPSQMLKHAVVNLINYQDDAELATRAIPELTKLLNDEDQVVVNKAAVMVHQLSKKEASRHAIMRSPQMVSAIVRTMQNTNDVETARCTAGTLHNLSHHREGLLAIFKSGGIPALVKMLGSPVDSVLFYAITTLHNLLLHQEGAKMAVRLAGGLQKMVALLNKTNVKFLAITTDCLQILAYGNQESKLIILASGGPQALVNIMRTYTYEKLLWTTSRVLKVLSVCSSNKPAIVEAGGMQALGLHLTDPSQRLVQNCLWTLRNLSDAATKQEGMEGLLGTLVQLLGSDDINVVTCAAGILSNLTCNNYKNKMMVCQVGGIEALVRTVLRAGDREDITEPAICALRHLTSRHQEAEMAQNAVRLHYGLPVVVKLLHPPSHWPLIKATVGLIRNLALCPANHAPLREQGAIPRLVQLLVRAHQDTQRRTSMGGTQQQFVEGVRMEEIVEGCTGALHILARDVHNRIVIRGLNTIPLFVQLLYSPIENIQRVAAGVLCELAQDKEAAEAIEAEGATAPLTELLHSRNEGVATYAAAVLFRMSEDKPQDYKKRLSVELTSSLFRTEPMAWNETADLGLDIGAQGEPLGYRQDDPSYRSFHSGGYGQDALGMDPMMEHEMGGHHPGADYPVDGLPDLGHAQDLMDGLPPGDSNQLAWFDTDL
UniProt Q02248, residues 2-781: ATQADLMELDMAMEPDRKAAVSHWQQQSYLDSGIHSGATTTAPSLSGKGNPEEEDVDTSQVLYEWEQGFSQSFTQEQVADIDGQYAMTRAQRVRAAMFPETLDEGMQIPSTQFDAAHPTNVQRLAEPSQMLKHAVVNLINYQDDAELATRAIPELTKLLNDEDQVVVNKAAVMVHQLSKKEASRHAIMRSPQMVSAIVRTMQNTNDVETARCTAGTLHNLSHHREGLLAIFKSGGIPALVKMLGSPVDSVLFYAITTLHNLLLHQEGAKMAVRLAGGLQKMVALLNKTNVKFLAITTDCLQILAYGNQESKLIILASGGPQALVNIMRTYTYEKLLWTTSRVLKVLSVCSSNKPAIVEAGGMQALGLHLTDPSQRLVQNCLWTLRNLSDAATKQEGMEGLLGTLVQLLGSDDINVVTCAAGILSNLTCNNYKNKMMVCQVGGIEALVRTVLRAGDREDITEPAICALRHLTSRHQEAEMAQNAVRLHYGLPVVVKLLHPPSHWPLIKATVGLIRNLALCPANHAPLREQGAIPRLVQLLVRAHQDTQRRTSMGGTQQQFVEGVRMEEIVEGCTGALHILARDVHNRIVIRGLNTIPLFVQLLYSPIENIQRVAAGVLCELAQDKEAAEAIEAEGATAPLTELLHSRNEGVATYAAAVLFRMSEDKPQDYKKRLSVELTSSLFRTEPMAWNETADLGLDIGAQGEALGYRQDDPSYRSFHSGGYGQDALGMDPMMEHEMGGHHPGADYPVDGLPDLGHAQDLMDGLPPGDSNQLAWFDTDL

Tests used:
[1] = target: HIF-1α (endogenous, human hepatocellular carcinoma cell lines HepG2 and Huh7) (human) (UniProt Q16665); assay: co-immunoprecipitation, human hepatocellular carcinoma cell lines Huh7 and HepG2
[2] = target: HIF-1α (endogenous, human hepatocellular carcinoma cell lines HepG2 and Huh7) (human) (UniProt Q16665); assay: co-immunoprecipitation from HepG2 cell lysates with anti-β-catenin antibody, immunoblot for HIF-1α; hypoxia
[3] = target: HIF-1α (endogenous, mouse liver) (mouse) (UniProt Q61221); assay: co-immunoprecipitation from sham or ischemia-treated mouse liver lysates with anti-β-catenin antibody, immunoblot for HIF-1α

Row | binding [1] | binding [2] | binding [3] | Substance
1 | binds | binds |  | β-catenin (endogenous, human hepatocellular carcinoma cell lines HepG2 and Huh7) (from UniProt P35222 2-781)
2 |  |  | binds | β-catenin (endogenous, mouse liver / mouse AML12 hepatocytes) (from UniProt Q02248 2-781)
